Four compounds from patent USRE36291E, “Reaction product of nitrogen bases and phosphate esters as corrosion inhibitors” (Baker Hughes Incorporated, priority 1995, dated 1999) can be followed below.

The structures appear in SMILES notation.

Series [1] in a line: Kettle test for corrosion inhibitor efficacy, sweet. As to conditions: 24 hours, stirring, CO2, room temperature.
Series [2] in a line: Kettle test for corrosion inhibitor efficacy, sour. Particulars: 24 hours, CO2, 50 ppm H2S, room temperature.

`OCC(CO)(CO)CO` [Composition 6] showed a Sweet corrosion rate in series [1] (active concentration 150 ppm) of 27 MPY. Moreover, the Sour corrosion rate in series [2] (active concentration 150 ppm) is 23 MPY.

The compound `O=C(O)c1cc(O)c(O)c(O)c1` [Composition 14] returned a Sweet corrosion rate in series [1] (active concentration 250 ppm) of 61 MPY. Further, the Sour corrosion rate in series [2] (active concentration 250 ppm) is 12 MPY.

`O=C1NS(=O)(=O)c2ccccc21` [Composition 15] displayed a Sweet corrosion rate in series [1] (active concentration 250 ppm) of 49 MPY. For the same compound, the Sour corrosion rate in series [2] (active concentration 250 ppm) amounted to 59 MPY.

`NC(N)=S` [Composition 11]: the Sweet corrosion rate in series [1] (active concentration 250 ppm) turned out to be 28 MPY. Also, the Sour corrosion rate in series [2] (active concentration 250 ppm) was 24 MPY.
